Reference: article PMC6701830

Tests used:
[1] = target: T1, soluble Clec9A ectodomain (recombinant) (mouse) (UniProt Q8BRU4); assay: ELISA; soluble Clec9A ectodomain coated at 100 ng/well (100mM NaCl, 20mM Tris, pH 8.8, overnight 4°C); purified Env titrated in a half log series, two hours at room temperature in block buffer; detected with pooled HIV+ sera; single experiment (Fig 1E); both purified
T1 sequence: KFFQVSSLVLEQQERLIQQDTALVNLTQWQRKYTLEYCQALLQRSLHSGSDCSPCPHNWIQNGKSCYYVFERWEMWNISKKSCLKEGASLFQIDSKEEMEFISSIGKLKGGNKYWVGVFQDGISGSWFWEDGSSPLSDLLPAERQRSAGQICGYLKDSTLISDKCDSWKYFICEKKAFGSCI

[2] = target: T2, full length Clec9A expressed on the surface of transfected 293T cells (pClec9A-EGFP) (mouse) (UniProt Q8BRU4); assay: flow cytometry on cells; 293T cells transfected with pClec9A-EGFP, stained with 10μg/mL uncleaved AD8 gp140, detected with PGT121-CF647; gated on EGFP High or EGFP Low cells; only the binder purified
T2 sequence: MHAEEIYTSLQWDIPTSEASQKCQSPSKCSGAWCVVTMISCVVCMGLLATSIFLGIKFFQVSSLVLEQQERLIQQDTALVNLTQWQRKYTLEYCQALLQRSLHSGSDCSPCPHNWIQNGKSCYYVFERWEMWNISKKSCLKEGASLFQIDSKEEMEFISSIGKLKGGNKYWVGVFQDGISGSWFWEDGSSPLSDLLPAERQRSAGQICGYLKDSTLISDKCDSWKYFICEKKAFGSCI

[3] = target: T1, soluble Clec9A ectodomain (recombinant) (mouse); assay: ELISA; soluble Clec9A ectodomain coated at 100 ng/well; Env in tissue culture supernatant prior to purification, half log series; detected with pooled HIV+ sera; single experiment (Fig 1D); only the target purified

## uncleaved AD8 gp140 (soluble ectodomain of HIV-1 AD8 Env) (domain or fragment)
[1]
  binding: no binding
[2]
  binding: no binding (tested: 10μg/mL)
[3]
  binding: no binding

These are yes or no findings as the source states them, for the method shown. For part of these data: Tags and fused reporters may be left off the sequences shown.
